Measured values published in article doi:10.1101/2021.04.23.441200.
No constants are given. Whether binding was seen depends on the method and setting. In cells and extracts the contact can be indirect. These calls come from enrichment with a bait or labelling near it, and not all partners need be listed.

Sequences of proteins named here, by UniProt entry; tags and fusion partners are left off. Residues count along the entry.
UniProt P63104: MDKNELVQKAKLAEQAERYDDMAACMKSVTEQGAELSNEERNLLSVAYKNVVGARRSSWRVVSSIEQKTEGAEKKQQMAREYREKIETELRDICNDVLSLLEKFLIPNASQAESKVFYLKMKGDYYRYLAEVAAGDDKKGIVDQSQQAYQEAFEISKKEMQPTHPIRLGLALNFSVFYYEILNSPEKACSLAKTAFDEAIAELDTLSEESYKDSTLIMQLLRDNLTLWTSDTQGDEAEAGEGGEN
UniProt P16070, residues 21-742: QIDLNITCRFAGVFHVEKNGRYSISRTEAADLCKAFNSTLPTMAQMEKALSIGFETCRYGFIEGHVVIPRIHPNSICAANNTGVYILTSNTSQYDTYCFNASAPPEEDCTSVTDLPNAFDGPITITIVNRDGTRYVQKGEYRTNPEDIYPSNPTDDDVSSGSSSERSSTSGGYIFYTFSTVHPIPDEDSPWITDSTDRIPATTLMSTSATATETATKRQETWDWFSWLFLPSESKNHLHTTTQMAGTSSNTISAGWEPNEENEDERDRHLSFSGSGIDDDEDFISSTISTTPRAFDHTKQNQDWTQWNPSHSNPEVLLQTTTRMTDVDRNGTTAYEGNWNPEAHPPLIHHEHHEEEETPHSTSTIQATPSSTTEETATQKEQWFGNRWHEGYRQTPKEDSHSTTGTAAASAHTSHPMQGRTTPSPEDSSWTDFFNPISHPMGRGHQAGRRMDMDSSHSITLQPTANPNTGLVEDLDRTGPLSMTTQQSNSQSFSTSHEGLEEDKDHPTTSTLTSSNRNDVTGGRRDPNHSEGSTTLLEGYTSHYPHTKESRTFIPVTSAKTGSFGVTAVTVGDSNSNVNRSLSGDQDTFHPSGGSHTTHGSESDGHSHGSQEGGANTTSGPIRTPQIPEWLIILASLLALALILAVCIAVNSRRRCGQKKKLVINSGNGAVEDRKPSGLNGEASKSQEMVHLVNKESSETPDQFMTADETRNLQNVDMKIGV

Each substance was assayed against T1, BioID2-SEPT6 (mouse) (UniProt Q9R1T4) (assay: proximity labelling).
T1 sequence: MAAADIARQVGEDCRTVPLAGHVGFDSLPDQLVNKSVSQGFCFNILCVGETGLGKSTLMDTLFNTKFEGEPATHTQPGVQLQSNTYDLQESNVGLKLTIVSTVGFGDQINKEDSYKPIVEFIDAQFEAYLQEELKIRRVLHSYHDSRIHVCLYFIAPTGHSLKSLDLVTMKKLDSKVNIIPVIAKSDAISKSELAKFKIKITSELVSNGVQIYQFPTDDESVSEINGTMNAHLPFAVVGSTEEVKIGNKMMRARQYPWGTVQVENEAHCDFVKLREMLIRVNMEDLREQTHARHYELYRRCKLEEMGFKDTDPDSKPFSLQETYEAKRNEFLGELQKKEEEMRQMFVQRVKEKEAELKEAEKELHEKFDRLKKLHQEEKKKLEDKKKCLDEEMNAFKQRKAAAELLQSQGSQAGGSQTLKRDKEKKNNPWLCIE

binding, binds:
14-3-3ζ (from UniProt P63104 1-245), CD44 (from UniProt P16070 21-742) (receptor), Notch (human (endogenous in melanoma cells)) (receptor)
